Reference: US20160090556A1, “PRODUCTS COMPRISING MALODOR REDUCTION MATERIALS” (The Procter & Gamble Company, priority 2014, published 2016)
Read-outs that look alike come from different tables or passages of the source. Some compounds share one wording; it may come from a single statement.

Legend:
[1] = Melamine formaldehyde PMC Headspace Response Ratio; conditions: for Comment Code: Melamine formaldehyde PMC Headspace Response Ratio: code letter I
[2] = Melamine formaldehyde PMC leakage; conditions: for Comment Code: Melamine formaldehyde PMC leakage: code letter J
[3] = class code letter within Comment Code

Compound	Comment Code: Melamine formaldehyde PMC Headspace Response Ratio [1]	Comment Code: Melamine formaldehyde PMC leakage [2]	other results
CC(=O)OC(C)(C)C1CCC(C)CC1 (stereo not shown) [Material 447]	I (Melamine formaldehyde PMC Headspace Response Ratio greater than or equal to 10)	J (Melamine formaldehyde PMC leakage less than or equal to 5%)	
CC1CCC2(O)C(C)(C)C3CCC2(C)C1C3 (stereo not shown) [Material 933]	I (Melamine formaldehyde PMC Headspace Response Ratio greater than or equal to 10)	J (Melamine formaldehyde PMC leakage less than or equal to 5%)	Melamine formaldehyde PMC Headspace Response Ratio (Comment Code I) [1]: I (Melamine formaldehyde PMC Headspace Response Ratio greater than or equal to 10); Melamine formaldehyde PMC leakage (Comment Code J) [2]: J (Melamine formaldehyde PMC leakage less than or equal to 5%)
CCOC(=O)C12CCCC1C1CCC2C1 (stereo not shown) [Material 344]			Melamine formaldehyde PMC Headspace Response Ratio (Comment Code I) [1, 3]: I (Melamine formaldehyde PMC Headspace Response Ratio greater than or equal to 10); Melamine formaldehyde PMC leakage (Comment Code J) [2, 3]: J (Melamine formaldehyde PMC leakage less than or equal to 5%)
CCOC(=O)C(C)C1CCCCC1 (stereo not shown) [Material 412]	I (Melamine formaldehyde PMC Headspace Response Ratio greater than or equal to 10)	J (Melamine formaldehyde PMC leakage less than or equal to 5%)	
CC1=CCC(C(C)C)=CC1 [Material 319]	I (Melamine formaldehyde PMC Headspace Response Ratio greater than or equal to 10)	J (Melamine formaldehyde PMC leakage less than or equal to 5%)	
CC(=O)OC(C)C1CCCC(C)(C)C1 (stereo not shown) [Material 1011]	I (Melamine formaldehyde PMC Headspace Response Ratio greater than or equal to 10)	J (Melamine formaldehyde PMC leakage less than or equal to 5%)	
CCC(C)(O)CCCC(C)C (stereo not shown) [Material 1054]	I (Melamine formaldehyde PMC Headspace Response Ratio greater than or equal to 10)	J (Melamine formaldehyde PMC leakage less than or equal to 5%)	
CCNC(=O)C1CC(C)CCC1C(C)C (stereo not shown) [Material 57]			Melamine formaldehyde PMC Headspace Response Ratio (Comment Code I) [1, 3]: I (Melamine formaldehyde PMC Headspace Response Ratio greater than or equal to 10); Melamine formaldehyde PMC leakage (Comment Code J) [2, 3]: J (Melamine formaldehyde PMC leakage less than or equal to 5%)
CCCc1ccc(O)c(OC)c1 [Material 440]	I (Melamine formaldehyde PMC Headspace Response Ratio greater than or equal to 10)	J (Melamine formaldehyde PMC leakage less than or equal to 5%)	
C=C(C)C1CCC(C)(O)CC1 (stereo not shown) [Material 612]			Melamine formaldehyde PMC Headspace Response Ratio (Comment Code I) [1]: I (Melamine formaldehyde PMC Headspace Response Ratio greater than or equal to 10); Melamine formaldehyde PMC leakage (Comment Code J) [2]: J (Melamine formaldehyde PMC leakage less than or equal to 5%)
Cc1cc(O)cc(C)c1Cl [Material 557]	I (Melamine formaldehyde PMC Headspace Response Ratio greater than or equal to 10)	J (Melamine formaldehyde PMC leakage less than or equal to 5%)	
CC(=O)OC1CC2CCC1(C)C2(C)C (stereo not shown) [Material 231]			Melamine formaldehyde PMC Headspace Response Ratio (Comment Code I) [1, 3]: I (Melamine formaldehyde PMC Headspace Response Ratio greater than or equal to 10); Melamine formaldehyde PMC leakage (Comment Code J) [2, 3]: J (Melamine formaldehyde PMC leakage less than or equal to 5%)
CCOC(=O)C1C(CC)=CCCC1(C)C (stereo not shown) [Material 294]			Melamine formaldehyde PMC Headspace Response Ratio (Comment Code I) [1, 3]: I (Melamine formaldehyde PMC Headspace Response Ratio greater than or equal to 10); Melamine formaldehyde PMC leakage (Comment Code J) [2, 3]: J (Melamine formaldehyde PMC leakage less than or equal to 5%)
CCCCCC1(C)CCC(C)(C)C1=O (stereo not shown) [Material 1115]	I (Melamine formaldehyde PMC Headspace Response Ratio greater than or equal to 10)	J (Melamine formaldehyde PMC leakage less than or equal to 5%)	
CCC(C)(O)/C=C/C=C(C)C (stereo not shown) [Material 81]	I (Melamine formaldehyde PMC Headspace Response Ratio greater than or equal to 10)	J (Melamine formaldehyde PMC leakage less than or equal to 5%)	
CC(C)CCCC(C)CC=O (stereo not shown) [Material 1051]	I (Melamine formaldehyde PMC Headspace Response Ratio greater than or equal to 10)	J (Melamine formaldehyde PMC leakage less than or equal to 5%)	
CC12CCC(C(=O)C1=O)C2(C)C (stereo not shown) [Material 587]			Melamine formaldehyde PMC Headspace Response Ratio (Comment Code I) [1]: I (Melamine formaldehyde PMC Headspace Response Ratio greater than or equal to 10); Melamine formaldehyde PMC leakage (Comment Code J) [2]: J (Melamine formaldehyde PMC leakage less than or equal to 5%)

Compound	Comment Code: Melamine formaldehyde PMC Headspace Response Ratio [1]	Comment Code: Melamine formaldehyde PMC leakage [2]	other results
CC1=CCC(C(C)CC=O)CC1 (stereo not shown) [Material 159]			Melamine formaldehyde PMC Headspace Response Ratio (Comment Code I) [1, 3]: I (Melamine formaldehyde PMC Headspace Response Ratio greater than or equal to 10); Melamine formaldehyde PMC leakage (Comment Code J) [2, 3]: J (Melamine formaldehyde PMC leakage less than or equal to 5%)
C=CC(C)(O)CCC=C(C)C (stereo not shown) [Material 157]	I (Melamine formaldehyde PMC Headspace Response Ratio greater than or equal to 10)	J (Melamine formaldehyde PMC leakage less than or equal to 5%)	
C=C[C@](C)(O)CCC=C(C)C [Material 888]	I (Melamine formaldehyde PMC Headspace Response Ratio greater than or equal to 10)	J (Melamine formaldehyde PMC leakage less than or equal to 5%)	
CC1CCC2C(C1)OC(=O)C2C (stereo not shown) [Material 179]			Melamine formaldehyde PMC Headspace Response Ratio (Comment Code I) [1, 3]: I (Melamine formaldehyde PMC Headspace Response Ratio greater than or equal to 10); Melamine formaldehyde PMC leakage (Comment Code J) [2, 3]: J (Melamine formaldehyde PMC leakage less than or equal to 5%)
C=C[C@@](C)(O)CCC=C(C)C [Material 1017]	I (Melamine formaldehyde PMC Headspace Response Ratio greater than or equal to 10)	J (Melamine formaldehyde PMC leakage less than or equal to 5%)	
Cc1ccc(C(C)C)cc1O [Material 575]	I (Melamine formaldehyde PMC Headspace Response Ratio greater than or equal to 10)	J (Melamine formaldehyde PMC leakage less than or equal to 5%)	
C=C(C)[C@@H]1CC[C@@H](C)C(=O)C1 (relative stereo) [Material 1081]	I (Melamine formaldehyde PMC Headspace Response Ratio greater than or equal to 10)	J (Melamine formaldehyde PMC leakage less than or equal to 5%)	
C=C(C)C1CCC(C)C(O)C1 (stereo not shown) [Material 897]			Melamine formaldehyde PMC Headspace Response Ratio (Comment Code I) [1]: I (Melamine formaldehyde PMC Headspace Response Ratio greater than or equal to 10); Melamine formaldehyde PMC leakage (Comment Code J) [2]: J (Melamine formaldehyde PMC leakage less than or equal to 5%)
COc1c(C(C)(C)C)cc([N+](=O)[O-])c(C)c1[N+](=O)[O-] [Material 78]			Melamine formaldehyde PMC Headspace Response Ratio (Comment Code I) [1, 3]: I (Melamine formaldehyde PMC Headspace Response Ratio greater than or equal to 10); Melamine formaldehyde PMC leakage (Comment Code J) [2, 3]: J (Melamine formaldehyde PMC leakage less than or equal to 5%)
CC(C)CCCC(C)CC=O (stereo not shown) [Material 27]	I (Melamine formaldehyde PMC Headspace Response Ratio greater than or equal to 10)	J (Melamine formaldehyde PMC leakage less than or equal to 5%)	
CCCC(C)(S)CO (stereo not shown) [Material 1098]	I (Melamine formaldehyde PMC Headspace Response Ratio greater than or equal to 10)	J (Melamine formaldehyde PMC leakage less than or equal to 5%)	
CC1(O)CCOC2(CCCCC2)C1 (stereo not shown) [Material 16]			Melamine formaldehyde PMC Headspace Response Ratio (Comment Code I) [1, 3]: I (Melamine formaldehyde PMC Headspace Response Ratio greater than or equal to 10); Melamine formaldehyde PMC leakage (Comment Code J) [2, 3]: J (Melamine formaldehyde PMC leakage less than or equal to 5%)
C=CC(C)=CCC1OC1(C)C (stereo not shown) [Material 73]	I (Melamine formaldehyde PMC Headspace Response Ratio greater than or equal to 10)	J (Melamine formaldehyde PMC leakage less than or equal to 5%)	
Cc1csc(C(C)C)n1 [Material 848]	I (Melamine formaldehyde PMC Headspace Response Ratio greater than or equal to 10)	J (Melamine formaldehyde PMC leakage less than or equal to 5%)	
CC1C(C)(C)C2=C(C(=O)CCC2)C1(C)C (stereo not shown) [Material 572]			Melamine formaldehyde PMC Headspace Response Ratio (Comment Code I) [1]: I (Melamine formaldehyde PMC Headspace Response Ratio greater than or equal to 10); Melamine formaldehyde PMC leakage (Comment Code J) [2]: J (Melamine formaldehyde PMC leakage less than or equal to 5%)
C=C1CC2CCC1C2(C)C (stereo not shown) [Material 711]			Melamine formaldehyde PMC Headspace Response Ratio (Comment Code I) [1]: I (Melamine formaldehyde PMC Headspace Response Ratio greater than or equal to 10); Melamine formaldehyde PMC leakage (Comment Code J) [2]: J (Melamine formaldehyde PMC leakage less than or equal to 5%)
C=C(C)CCC[C@H](C)CCO [Material 1004]	I (Melamine formaldehyde PMC Headspace Response Ratio greater than or equal to 10)	J (Melamine formaldehyde PMC leakage less than or equal to 5%)	
